The other results are listed elsewhere or left out.
B1: il10ra_site1_normal_mot_HHH_b1_01247_af2_000000274_0001_1_19_H_._HHH_b2_04717_af2_0001_0000200008_0000002_0_af2pred_0001 (protein)
chain: SSSSDEEEHRLIELLQAIIRLLKEGDEEEAREVIKEAKELAEELGDELAKYQLEVLEKALRSSSS
B2: il10ra_site1_normal_mot_7d538683ae38ff56261eb02f12605454_0001_af2_000000062_0001_54_65_H_._HHH_b1_02690_0001_0000100003_0000001_0_af2pred_0001 (protein)
chain: SSSSDEEEEQIIEALQLIALLLARGNPEEAREVLKELEELVREIGDPELEAAVRTLRLALGSSSS
B3: il10ra_site1_sap_13_mot_7bf4b1c84582348b31e6ccb2b1d8e1ae_0001_1_af2_000000000_0001_1_14_H_._60091493e9a1e78a97af177fbdf76fb6_0001_1_0001_0000400020_0000001_0_00 … (protein)
chain: SSSSSSEEELRERVEELLEEAEQITDRRTLFKVLMEALRLAIRGNDPELLRRVWRLLKELSSSSS
B4: il10ra_site1_normal_mot_HHH_b1_07835_af2_000000063_0001_1_16_H_._ems_p1-16H-GBL-16H-GABBL-16H_0303_0001_0001_0002_af2_0001_0000500026_0000002_0_af2pred_0001 (protein)
chain: SSSSSEVAHLLFEALRAAARNGDKEAFERIAQIAAKWLEGKLSPEEASELLQEIIEELRSSSSSS
B5: il10ra_site1_normal_mot_b26a303360aa2756ef5b79665ce52f45_0001_000000179_0001_1_11_H_._HHH_b2_04039_0001_0000200018_0000001_0 (protein)
chain: SSSSSDVAQRVRELLEEAIEAQERGDEELVEELLEEAERLAKERNNTVLRFSVEHFARANSSSSS
B6: il10ra_site1_sap_26_mot_HHH_b1_03763_000000278_0001_22_38_H_._HHH_b1_02328_af2_0001_0000400019_0000001_0_0001 (protein)
chain: SSSSDDREELEELLEEIQRLLEEGDPERALELLQEALRFAFQLGDEEILQRLWELAKRVASSSSS
B7: il10ra_site1_normal_mot_HHH_b1_01886_000000262_0001_1_18_H_._HHH_b1_06187_0001_0000500035_0000001_0 (protein)
chain: SSSSTLEWSVKFALRAARLLREAGNPEQAEELLEKLLELLEETGDEELFEEVERLLEELRKSSSS
B8: il10ra_site1_normal_mot_HHH_b2_05323_000000159_0001_1_18_H_._HHH_b1_08208_0001_0000300015_0000001_0 (protein)
chain: SSSSSSDEALRLVLEAFRLALRGNPEEAEKVLEEALKEAEEENDPRLERAIRDLLKVLSSSSSSS
B9: il10ra_site1_normal_mot_HHH_b1_01874_000000035_0001_1_20_H_._HHH_b2_04719_0001_0000100004_0000002_0_af2pred_0001 (protein)
chain: SSSSSSSKVEEIFRLIRKALHIDDEEEAREILERALELAEELNNEIALIAAELALRQLSSSSSSS
B10: il10ra_site1_sap_17_mot_HHH_b2_07535_000000205_0001_20_36_H_._HHH_b2_06317_0001_0000100012_0000001_0_0001 (protein)
chain: SSSSSRREEVWRLLREALEARARGNPELVEELLEEAKRLAEEANSEVLLRVVEFMERALLSSSSS
B11: il10ra_site1_normal_mot_HHH_b2_03220_af2_000000223_0001_23_40_H_._HHH_b1_07968_af2_0001_0000200015_0000001_0_af2pred_0001 (protein)
chain: SSSSSEEAERAIELLREALRLRANGNPEEAKEVLEEAEELAEELGSEQLLRLIRLVLEQLSSSSS
B12: il10ra_site1_normal_mot_HHH_b1_05126_000000010_0001_38_52_H_._HHH_b2_05985_af2_0001_0000600013_0000001_1 (protein)
chain: SSSSDEEELEELLEILKELVEKNDAERFYEVAREAIELASELNDEEVQRELMELIKLLFGSSSSS
B13: il10ra_site1_sap_20_mot_HHH_b2_07144_000000289_0001_1_18_H_._HHH_b2_07383_0001_0000300040_0000001_1_0001 (protein)
chain: SSSSSSDLEELVEELEEAVREGDTEKAARIAQEAVRLAFQLSDEEALQELWELIKEVASSSSSSS
B14: il10ra_site1_normal_mot_HHH_b2_06979_000000158_0001_42_57_H_._HHH_b1_00897_af2_0001_0000100002_0000002_0_af2pred_dldesign_0_af2pred (protein)
chain: SSSSSVEDTQEILRLLRKASELEDKEEALKVVEKAVELARKLGNEILLADAEYLLADVKAESSSS
B15: il10ra_site1_sap_9_mot_HHH_b2_04251_af2_000000037_0001_42_56_H_._HHH_b2_00851_0001_0000200012_0000001_0_0001 (protein)
chain: SSSSSREEAIRNMVEAARVLLKLITDPRLREELKELLEELEEEGDPELLRELQHLAAQILNSSSS
B16: il10ra_site1_sap_26_mot_HHH_b2_08004_000000101_0001_1_17_H_._HHH_b1_08451_af2_0001_0000500016_0000002_0_0001_af2pred_dldesign_0_af2pred (protein)
chain: SSSSDVEAEVERLTEEAKRLIEEGKKEEARELLLRMRRLASEAKDGKLWQKVVEVTKLLLESSSS
B17: il10ra_site1_sap_14_mot_HHH_b1_03333_000000091_0001_1_17_H_._HHH_b2_03652_af2_0001_0000200011_0000001_0_0001 (protein)
chain: SSSSDLEEEAEELAEEAIELARKRGNRAAVFLLEQALKALEIAGDPKAAEVLYSLARIVLSSSSS
B18: il10ra_site1_sap_20_mot_HHH_b2_00335_000000038_0001_43_57_H_._HHH_b2_00335_0001_0000100004_0000001_0_0001_af2pred_0001 (protein)
chain: SSSSNLEQDVRVALKAVRILIEKGDPEDAQKALELAKRLAREANNEELEELIEEVERELHSSSSS
B19: il10ra_site1_normal_mot_HHH_b2_05323_000000159_0001_1_18_H_._HHH_b1_01365_0001_0000200019_0000001_0 (protein)
chain: SSSSDEEDQEVLELSKEIFRLLLRGNEEEARELLEKAIELAREIGDERLLRVLEDLLDVASSSSS

target: il10ra, Q13651; test: yeast display titration

Row | Binder | apparent Kd
1 | B1 | inactive: no binding seen
2 | B2 | inactive: no binding seen
3 | B3 | inactive: no binding seen
4 | B4 | inactive: no binding seen
5 | B5 | inactive: no binding seen
6 | B6 | inactive: no binding seen
7 | B7 | inactive: no binding seen
8 | B8 | inactive: no binding seen
9 | B9 | inactive: no binding seen
10 | B10 | inactive: no binding seen
11 | B11 | inactive: no binding seen
12 | B12 | inactive: no binding seen
13 | B13 | inactive: no binding seen
14 | B14 | inactive: no binding seen
15 | B15 | inactive: no binding seen
16 | B16 | inactive: no binding seen
17 | B17 | inactive: no binding seen
18 | B18 | inactive: no binding seen
19 | B19 | inactive: no binding seen

A second format for some results above:

| Row | Binder | apparent Kd |
| --- | --- | --- |
| 4 | B4 | inactive: no binding seen |
| 10 | B10 | inactive: no binding seen |
